Record: PubChem BioAssay AID504793 (Drosophila RNAi Screening Center, 2011)

- Aim: 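Whole-genome screen for parts of the DNA damage checkpoint at G2/M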 (primary screen)
- Cells: Drosophila S2R+ cells
- Reagent: long dsRNA against Drosophila genes, about 0.25 µg dsRNA per well
- Duration: 4 days of dsRNA, then 4 hours of drug before read-out
- Treatment: doxorubicin 0.5 µM for 4 hours to cause double-strand breaks, in cells also given a low, harmless dose of dsRNA against nbs to sensitise the assay
- Detection: 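Per-well count of mitotic cells stained for phospho-histone H3 after doxorubicin exposure, used as mitotic index; counts are raw and not normalised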
- Reading the numbers: mitotic cells: higher = more cells in mitosis, weaker G2 arrest
- Call rule: 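Genes are called active only when high mitotic counts were reproduced with independent dsRNAs and mitosis was checked for delay without damage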
- Calls: active = confirmed in follow-up tests; inactive = not confirmed
In all, the deposit lists about 23,000 reagents; shown is a random part of those that have a named target and a result. In the full data, 62 (0.27%) were called active. 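Calls come from follow-up tests whose scores are not deposited, so confirmed genes may have low counts here; counts are not normalised per plate.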 Raw values vary from plate to plate and are shown uncorrected. Reagent sequences are not shown.

CG42594 [DRSC18408] showed mitotic cells, replicate 1 = 6; inactive. With knock-down of CG42594 [DRSC22978] the results were mitotic cells, replicate 1 = 13; inactive. Silencing of CG42594 [DRSC25767] gave: mitotic cells, replicate 1 = 7; inactive. Knock-down of CG42594 [DRSC26285] came out at: mitotic cells, replicate 1 = 9; inactive. CG42594 [DRSC28979] gave mitotic cells, replicate 1 = 3; inactive. Hmx (H6-like-homeobox) [DRSC24958] showed mitotic cells, replicate 1 = 7; inactive.

With knock-down of Hmx (H6-like-homeobox) [DRSC25028] the results were mitotic cells, replicate 1 = 9; inactive. For CG33521 [DRSC17211], the entry reads mitotic cells, replicate 1 = 7; inactive. With knock-down of CG33521 [DRSC22919] the results were mitotic cells, replicate 1 = 9; inactive. CG33521 [DRSC29186] showed mitotic cells, replicate 1 = 4; inactive. After knock-down of Osi9 (Osiris 9) [DRSC12278] the results were mitotic cells, replicate 1 = 4; inactive. Silencing of Osi9 (Osiris 9) [DRSC28928] came out at: mitotic cells, replicate 1 = 2; inactive.

5 entries already listed, sorted by “mitotic cells, replicate 1”, highest first.
CG42594 [DRSC22978]: mitotic cells, replicate 1 = 13; Outcome = inactive
CG42594 [DRSC26285]: mitotic cells, replicate 1 = 9; Outcome = inactive
CG42594 [DRSC25767]: mitotic cells, replicate 1 = 7; Outcome = inactive
Hmx (H6-like-homeobox) [DRSC24958]: mitotic cells, replicate 1 = 7; Outcome = inactive
CG42594 [DRSC28979]: mitotic cells, replicate 1 = 3; Outcome = inactive

The results go on.
Against prel (preli-like) [DRSC07271], the values are mitotic cells, replicate 1 = 3; inactive. Silencing of CG10859 [DRSC02110] gave: mitotic cells, replicate 1 = 4; inactive. Against crb (crumbs) [DRSC16927] the deposit lists mitotic cells, replicate 1 = 6; inactive. With knock-down of crb (crumbs) [DRSC39156], the record shows mitotic cells, replicate 1 = 13; inactive. For Swim (Secreted Wg-interacting molecule) [DRSC04334] the deposit lists mitotic cells, replicate 1 = 7; inactive. With knock-down of CG6686 [DRSC02979], the screen gave mitotic cells, replicate 1 = 13; inactive.

Against CG6686 [DRSC27705], the entry reads mitotic cells, replicate 1 = 3; inactive. Knock-down of CG6984 [DRSC07013] gave: mitotic cells, replicate 1 = 9; inactive. For CG42449 [DRSC18084] the deposit lists mitotic cells, replicate 1 = 11; inactive. Against CG42449 [DRSC25316], the values are mitotic cells, replicate 1 = 8; inactive. Depletion of CG42565 [DRSC04154] resulted in: mitotic cells, replicate 1 = 4; inactive. With knock-down of shv (shriveled) [DRSC00640] the results were mitotic cells, replicate 1 = 6; inactive.

shv (shriveled) [DRSC22122] gave mitotic cells, replicate 1 = 7; inactive. Knock-down of shv (shriveled) [DRSC26482] resulted in: mitotic cells, replicate 1 = 4; inactive. Depletion of shv (shriveled) [DRSC26483] resulted in: mitotic cells, replicate 1 = 4; inactive. For CG7546 [DRSC08885], the values are mitotic cells, replicate 1 = 9; inactive. CG7546 [DRSC10871] showed mitotic cells, replicate 1 = 12; inactive. Against CG7546 [DRSC22148], the values are mitotic cells, replicate 1 = 8; inactive.

For CG8006 [DRSC10949], the entry reads mitotic cells, replicate 1 = 9; inactive. Against MED24 (Mediator complex subunit 24) [DRSC10944], the values are mitotic cells, replicate 1 = 4; inactive. Nxf3 (Nuclear export factor 3) [DRSC21749] scored mitotic cells, replicate 1 = 15; inactive. For AspRS-m (Aspartyl-tRNA synthetase, mitochondrial) [DRSC02646], the values are mitotic cells, replicate 1 = 7; inactive.
